Some of the results follow. Further columns of the screen follow, without active or inactive calls. The list favours compounds with an active or inconclusive main result. Words in brackets tell the shape of the fitted curve; partial curves, single points and poor fits give uncertain potencies.
Test: qHTS Assay for Modulators of Lamin A Splicing
Details: HeLa LMNA splicing GFP/RFP minigene ratio, 48 h
Summary of the method: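 Read-out is the ratio of GFP to DsRed2 object intensity, acquired by 488 nm laser-scanning cytometry on HeLa lamin A-EGFP minigene reporter cells. Compound incubation 48 hrs at 37 °C in Opti-MEM with 2% FBS; DMSO 0.5% final.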

[1] = measured here: GFP splicing reporter channel
[2] = measured here: RFP viability control channel

| SMILES | AC50 [1] | AC50 [2] |
| --- | --- | --- |
| CCOC(=O)c1ccc(N=c2sc(C(=O)OC)cc(=O)n2Cc2ccco2)cc1 | 35.5 µM [falling, single point] |  |
| COc1ccc(C(=O)Cn2nnc(-c3ccc(N4CCOCC4)cc3)n2)cc1OC |  | 10 µM [rising, partial curve] |
| O=S1(=O)CC/C(=N\Nc2ccc(F)cc2)c2ccsc21 | 11.2 µM [rising, partial curve, poor fit] | 12.6 µM [rising, single point] |
| COc1ccc(-c2nc(CNC(=O)Nc3ccccc3)c(C)o2)cc1 |  | 0.0562 µM [falling, full curve, poor fit] |
| Cc1noc2ncnc(Sc3ccc(Cl)cc3)c12 |  | 20 µM [falling, partial curve, poor fit] |
| C(=N\Nc1ncnc2ccccc12)/c1ccccc1 |  | 11.2 µM [falling, partial curve] |
| Cc1ccc(NC(=O)CCn2ccc([N+](=O)[O-])n2)nc1 | 0.00891 µM [rising, full curve, poor fit] | 0.00891 µM [rising, full curve, poor fit] |
| CCOC(=O)Cn1c(=O)n(CC2CCCO2)c2nc(-c3ccc(C(C)C)cc3)nc(C(N)=O)c21 (stereo not drawn) | 0.158 µM [falling, full curve, poor fit] |  |
| NC(=O)CCCCC1CCSS1 (stereo not drawn) | 1.26 µM [falling, single point] | 0.0891 µM [rising, partial curve, poor fit] |
| COc1ccc(NCC(=O)N/N=C/c2c(C)nn(Cc3ccccc3)c2Cl)cc1 | 35.5 µM [rising, single point] | 35.5 µM [rising, single point] |
| CCN(CCNC(=O)C1CCN(Cc2nc(-c3cccc(Cl)c3)oc2C)CC1)c1ccccc1 |  | 35.5 µM [rising, single point] |
| Cc1cc(-n2c(C)cc(C(=O)CSc3ncnc4ccccc34)c2C)no1 |  | 0.447 µM [rising, full curve] |
| COc1cccc(NC(=O)c2oc3ccccc3c2NC(=O)C2CC2)c1 |  | 11.2 µM [rising, partial curve, poor fit] |
| CCOc1ccc(C(C)NC(=S)NC2CCCCC2)cc1OCC (stereo not drawn) |  | 20 µM [rising, single point] |
| O=C(Nc1ccc(Cl)cc1)Nc1ccc2c(c1)N1CCN=C1S2 |  | 12.6 µM [rising, partial curve, poor fit] |
| CCCCOc1ccc(C(=O)C(CN2CCOCC2)c2ccccc2)cc1 (stereo not drawn) | 35.5 µM [falling, single point] | 25.1 µM [falling, single point] |
| CCC(=O)NC(c1ccco1)c1cc(Cl)c2cccnc2c1O (stereo not drawn) | 5.62 µM [falling, partial curve] | 3.16 µM [falling, full curve] |
| COC(=O)c1c(NC(=O)CN2CCC3(O)CCCCC3C2c2ccc(F)cc2)sc(C)c1C (stereo not drawn) | 15.8 µM [rising, partial curve] | 15.8 µM [rising, partial curve] |
| CC(/C=N/NC(=O)c1n[nH]c2c1CCC2)=C\c1ccccc1 | 2.51 µM [rising, full curve] | 1.78 µM [rising, full curve] |
| Cn1c(SCCOc2ccc(Cl)cc2)nnc1-c1ccncc1 |  | 35.5 µM [rising, single point] |
| CCC(C)(C)NC(=O)C(c1cccs1)N(C(=O)c1ccn[nH]1)c1cccc(OC)c1 (stereo not drawn) |  | 0.158 µM [falling, full curve, poor fit] |
| CCCCOc1ccc(C(C)NC(=O)C2CCCN(S(=O)(=O)CCC)C2)cc1 (stereo not drawn) |  | 1.41 µM [falling, partial curve, poor fit] |
| CC(C)CC(=O)/C(=C\c1ccc(Cl)cc1Cl)n1cncn1 | 12.6 µM [rising, single point] | 31.6 µM [rising, single point] |
| CC1CCc2c(sc(NC(=O)CSc3nc4c(c(C(F)(F)F)n3)CCc3ccccc3-4)c2C(N)=O)C1 (stereo not drawn) |  | 11.2 µM [rising, partial curve, poor fit] |
| C=C(C)Cn1c(=O)c2c(nc3n2CCN3c2cccc(Cl)c2C)n(C)c1=O |  | 28.2 µM [rising, single point] |
| Cc1ccc(/C=C/C(=O)OCC(=O)NCCN2C(=O)CSC2=O)cc1 | 10 µM [rising, partial curve, poor fit] | 12.6 µM [rising, partial curve, poor fit] |
| C=C1CC2C3CC[C@@]4(OCOC45COCO5)[C@@]3(C)C(O)CC2[C@@]2(C)CCC(=O)C=C12 (stereo partly drawn) |  | 20 µM [rising, partial curve] |

An excerpt of these results, comma-delimited:
SMILES,AC50 [1],AC50 [2]
COc1ccc(-c2nc(CNC(=O)Nc3ccccc3)c(C)o2)cc1,,"0.0562 µM [falling, full curve, poor fit]"
Cc1noc2ncnc(Sc3ccc(Cl)cc3)c12,,"20 µM [falling, partial curve, poor fit]"
C(=N\Nc1ncnc2ccccc12)/c1ccccc1,,"11.2 µM [falling, partial curve]"
Cc1ccc(NC(=O)CCn2ccc([N+](=O)[O-])n2)nc1,"0.00891 µM [rising, full curve, poor fit]","0.00891 µM [rising, full curve, poor fit]"
CCOC(=O)Cn1c(=O)n(CC2CCCO2)c2nc(-c3ccc(C(C)C)cc3)nc(C(N)=O)c21 (stereo not drawn),"0.158 µM [falling, full curve, poor fit]",
NC(=O)CCCCC1CCSS1 (stereo not drawn),"1.26 µM [falling, single point]","0.0891 µM [rising, partial curve, poor fit]"
COc1ccc(NCC(=O)N/N=C/c2c(C)nn(Cc3ccccc3)c2Cl)cc1,"35.5 µM [rising, single point]","35.5 µM [rising, single point]"
CCN(CCNC(=O)C1CCN(Cc2nc(-c3cccc(Cl)c3)oc2C)CC1)c1ccccc1,,"35.5 µM [rising, single point]"
Cc1cc(-n2c(C)cc(C(=O)CSc3ncnc4ccccc34)c2C)no1,,"0.447 µM [rising, full curve]"
COc1cccc(NC(=O)c2oc3ccccc3c2NC(=O)C2CC2)c1,,"11.2 µM [rising, partial curve, poor fit]"

Next part.

| SMILES | AC50 [1] | AC50 [2] |
| --- | --- | --- |
| CC(=O)c1cc(-c2nc3ccccc3n2C)n(C)c1 | 35.5 µM [falling, single point] |  |
| CC(OC(=O)C1COc2ccccc2O1)C(=O)N(C)c1ccccc1 (stereo not drawn) |  | 3.16 µM [rising, partial curve] |
| CCCc1cc(-c2nc(-c3ccc(Br)cc3)cs2)ccn1 | 22.4 µM [rising, single point] | 28.2 µM [rising, single point] |
| O=C(Nc1ccc2oc(-c3ccccc3F)nc2c1)c1ncn[nH]1 | 0.562 µM [rising, partial curve] | 12.6 µM [rising, single point] |
| Cc1ccc2nc(NC(=O)C3CCN(S(=O)(=O)c4cnc[nH]4)CC3)sc2c1 | 35.5 µM [rising, single point] | 35.5 µM [rising, single point] |
| Cc1cc(NC(=O)c2cccc(N3C(=O)CCC3=O)c2)no1 | 0.501 µM [falling, full curve, poor fit] | 0.501 µM [falling, full curve, poor fit] |
| CSc1ccc(/C=C/C(=O)c2ccc(O)cc2)cc1 | 35.5 µM [falling, single point] | 35.5 µM [falling, single point] |
| CCOC(=O)N1CCN(c2c(F)cc3[nH]c(=S)[nH]c3c2Br)CC1 |  | 10 µM [rising, partial curve] |
| Cc1ccc(NC(=O)CSc2nnc(-c3ccco3)c(-c3ccco3)n2)cc1 |  | 12.6 µM [rising, partial curve, poor fit] |
| COc1ccc(-c2nc(C)c(CCNS(=O)(=O)c3cc(C)c(C)cc3C)s2)cc1 |  | 20 µM [rising, single point] |
| O=C(NCCc1ccccc1)c1nnc(Cc2cccc(F)c2)o1 | 15.8 µM [falling, partial curve] | 17.8 µM [falling, partial curve, poor fit] |
| CCSc1ccc2nnc(-c3cccc(F)c3)n2n1 |  | 0.631 µM [falling, full curve] |
| Cc1cccc(C)c1NC(=O)c1sccc1SCc1cccc(C(F)(F)F)c1 |  | 11.2 µM [falling, partial curve, poor fit] |
| CCn1c(COc2ccccc2C)nnc1SCC(=O)NC1CCCC1 | 25.1 µM [rising, single point] |  |
| N#Cc1ccccc1Cn1cc(/C=C/[N+](=O)[O-])c2ccccc21 |  | 25.1 µM [falling, single point] |
| COc1ccc(CCC(=O)Nc2ccc(C)c(S(=O)(=O)N(C)C)c2)cc1OC | 2.51 µM [rising, full curve] | 3.16 µM [rising, full curve] |
| COc1ccc(C)cc1Nc1nnc(C)c(=O)[nH]1 |  | 1.78 µM [rising, single point] |
| O=S(Cc1ccc(Br)cc1)Cc1nnc(SCc2ccc(Br)cc2)n1-c1ccccc1 (stereo not drawn) | 1.41 µM [rising, full curve, poor fit] | 2.82 µM [rising, full curve] |
| COc1cc([N+](=O)[O-])ccc1Nc1nc(C)cc(C)n1 | 1.26 µM [rising, partial curve] | 0.355 µM [rising, partial curve, poor fit] |
| Cc1nc(NCCc2ccccc2)c(C#N)c(C)c1[N+](=O)[O-] |  | 35.5 µM [falling, single point] |
| O=C(Nc1nc2ccccc2n1CCN1CCOCC1)c1cn(-c2ccccc2)nc1-c1ccccc1 | 35.5 µM [rising, single point] | 35.5 µM [rising, single point] |
| COc1ccc(OC)c(C(=O)COC(=O)c2cccnc2Cl)c1 |  | 0.1 µM [rising, partial curve] |
| Cc1cc(C)n(CC(O)Cn2c3ccc(Br)cc3c3cc(Br)ccc32)c(=O)n1 (stereo not drawn) | 35.5 µM [falling, single point] | 22.4 µM [falling, single point] |
| O=C(NC1CCCCC1)c1ccc2c(=O)n(CC3CCCO3)c(=O)[nH]c2c1 (stereo not drawn) | 10 µM [rising, partial curve, poor fit] | 12.6 µM [rising, single point] |
| Clc1ccc2nc(N3CCNCC3)nc(-c3ccccc3)c2c1 | 25.1 µM [falling, single point] | 35.5 µM [falling, single point] |
| CCOc1cccc2cc(C(=O)NCCC3=CCCCC3)c(=O)oc12 | 5.62 µM [rising, partial curve, poor fit] |  |
| COc1cccc(N2CC(NC(=O)c3ccco3)CC2=O)c1 (stereo not drawn) | 2.24 µM [falling, full curve, poor fit] | 0.00316 µM [falling, full curve, poor fit] |

— PubChem BioAssay AID1487 (National Center for Advancing Translational Sciences (NCATS), 2009)
